# Experimental data published in publication doi:10.1101/289702.
# The chains behind the UniProt entries cited, without tags or fusion partners.
# UniProt P38486: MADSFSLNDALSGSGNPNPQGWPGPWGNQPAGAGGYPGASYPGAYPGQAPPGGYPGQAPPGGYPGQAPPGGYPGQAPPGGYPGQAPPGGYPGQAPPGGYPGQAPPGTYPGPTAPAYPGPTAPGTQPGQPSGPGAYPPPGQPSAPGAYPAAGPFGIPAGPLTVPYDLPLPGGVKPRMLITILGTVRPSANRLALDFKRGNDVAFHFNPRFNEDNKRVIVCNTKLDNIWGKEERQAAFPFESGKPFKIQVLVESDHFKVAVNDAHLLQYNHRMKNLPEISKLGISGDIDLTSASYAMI
# These are yes or no findings as the source states them, for the method shown. Binding seen in cells or lysates may run through a third protein. Some binding calls cover weakened binding; strength is not graded here. Sequences can lack the tags named with a protein.
# Molecular target: T1, cystinosin-GFP fusion protein (UniProt O60931)
# T1 sequence: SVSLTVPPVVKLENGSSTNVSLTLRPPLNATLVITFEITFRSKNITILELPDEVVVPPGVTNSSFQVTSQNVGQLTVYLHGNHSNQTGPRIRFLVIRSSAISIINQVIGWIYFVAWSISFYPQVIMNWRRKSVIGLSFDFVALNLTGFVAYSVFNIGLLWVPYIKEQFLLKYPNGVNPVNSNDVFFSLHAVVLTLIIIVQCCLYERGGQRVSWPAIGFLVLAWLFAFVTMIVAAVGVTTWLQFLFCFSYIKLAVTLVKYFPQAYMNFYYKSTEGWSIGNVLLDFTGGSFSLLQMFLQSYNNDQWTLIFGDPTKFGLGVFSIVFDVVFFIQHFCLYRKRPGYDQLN
# Assay: co-IP
substance,measurement,value
galectin-3 (from UniProt P38486 1-296),binding,binds
